PubChem BioAssay AID1508600 (Functional Genomics Laboratory (NCATS/FGL), 2020)
The whole screen tested about 53,000 sequences, of which about 3,700 (7%) were called active.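 How the source made its calls: active means gene knockdowns whose robust z-score for IL-1 alpha signal is at least 2 or at most -2, so actives lie on both sides; inactive means the rest.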 The list shows a part of the results.

Assay: Components of the Cytosolic LPS Sensing Pathway: Gene Identification via Genome-wide siRNA Screen;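 further: robust z of the log signal after scaling to non-targeting control siRNA wells of the plate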
Settings: RAW264.7 macrophages, IL-1a HTRF, actives lie on both sides, screened at 100 nM (by protocol), cells primed 5 h with Pam3CSK4 first
In short: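 Three distinct siRNAs per gene were tested singly at 100 nM in RAW264.7 macrophages. Following Pam3CSK4 priming and 24 hour LipidA transfection, IL-1a secretion was read by HTRF.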

Sequence | z-score
CAAAUUAUGAGUGAGAACCTT against Olfr340 | inactive: -0.974
CGUGCUCAUUUAGGUUAUATT against Zfp57 | inactive: 1.15
GGUCAUCCUUUUUCAGUACTT against Lhx6 | active: 2.28
GGCUGUUUUGUGAACCUAATT against Olfr481 | inactive: -0.353
GGAUGUGCAAGAGAAAUUCTT against Tmem175 | inactive: 0.334
GGUACUUGAGUUGGCAGGATT against H2az1 | inactive: -1.16
GGCUUUACCGGAUCUUUUGTT against Krtap15 | inactive: -1.06
GGACUUGGAGAGCAAAAGCTT against Ano2 | active: -2.14
GCAGAUUCCUAUUAAAUGGTT against Fer | inactive: -0.587
GGAUGAAGCGAAUCACAACTT against Atp1b4 | inactive: -1.46
GGAGGAAACACGUCUGAAUTT against Slc4a9 | inactive: -0.425
GGCAGCUAGAGAGAAUCCUTT against Akr1c12 | active: -2.45
GGAGACAUCCAUUGAGCUUTT against Kirrel | inactive: 0.374
CCAUGACAAUGAAUAUCCUTT against Ms4a19 | inactive: -1.24
GGGAACACUGUUGUUCUUGTT against Sprr3 | inactive: 0.54
GGGCUUAACACUUUAAAUCTT against Reep3 | inactive: 0.454
GGUUAACCUGAGAAAAAUGTT against Mkrn1 | inactive: 0.734
GGAAGAAAUGUCAUCACAATT against Heph | inactive: 0.193
GGUCUAGCUCUGAAACAUCTT against Pms2 | active: 2.27
GUGAUUGAUAUUGUUCGAGTT against Pip | inactive: 0.00578
GGACACUAUAAGAAAGGAATT against Fnta | inactive: 0.708
GGUAUUUGAUGCUCGGGACTT against Nos3 | inactive: -0.979

Quoted from the listing.
Value of GGACACUAUAAGAAAGGAATT against Fnta under z-score: inactive: 0.708
Value of GGUUAACCUGAGAAAAAUGTT against Mkrn1 under z-score: inactive: 0.734
Value of GGGAACACUGUUGUUCUUGTT against Sprr3 under z-score: inactive: 0.54
Value of GGUCUAGCUCUGAAACAUCTT against Pms2 under z-score: active: 2.27
Value of GGCUGUUUUGUGAACCUAATT against Olfr481 under z-score: inactive: -0.353
Value of GGUCAUCCUUUUUCAGUACTT against Lhx6 under z-score: active: 2.28

Following part:

Sequence | z-score
CCAUUUUCGGCAAUGCGCUTT against Adra2b | inactive: -1.13
GGCUUUUCGUUCUCUGUCATT against Zfp729a | inactive: -1.78
GUUGCUGUAAACCCUGCUGTT against Krtap5-4 | inactive: -0.525
GGACAUCUUGUGUCUGUGCTT against Reg3g | inactive: 0.111
GGAUGUACAGUGCAUUUUGTT against Ankrd24 | inactive: -0.344
GGUCGUGAUAAACAUAUCATT against Cep85 | inactive: -1.1
GGAAUCCUAGGUUGCAUUATT against Mycbpap | inactive: -0.379
GAUGGUAGAGUCUACAUCATT against Hcst | inactive: -0.836
GGAUGCAUGGCCCAACUUUTT against Olfr915 | inactive: 1.64
GCAACAUGAGGUAUAUUGGTT against Sema4d | inactive: -0.688
GCCUCAUGGCUUAACUUUGTT against Acads | inactive: -0.743
GGUGCUUGUGGGUAACAAGTT against Rab33a | inactive: 1.94
GGUUUUCACUAUUUCAACUTT against Olfr187 | inactive: -1.06
CGUUUGCUCUAAAGCCAGGTT against Smagp | inactive: 0.886
GCCAAACUUAGCGUGCUCATT against Dgkk | inactive: 0.607
CGAUCAUCAUUGGUUGCGGTT against Fam24b | inactive: 0.176
GCCUUUUAUAUAGAAGACCTT against Pheta2 | inactive: 0.679
GGAGAUAAAUCCUUUGCAUTT against Zfp119a | inactive: 1.74
GCCUUUGGAAGUUCAGAACTT against Rnf216 | inactive: -1.07
GGAGCCUGACAUCAUUAUCTT against Mmp25 | inactive: -0.546
GGGCAAUGAUAUUGUUGUGTT against Ilk | inactive: -0.787
AGAGUGGUAAAACUGAUUATT against Tas2r129 | inactive: 0.513

Sequence | z-score
GGCCUUUUGGCUUUGAUCUTT against Hoxb1 | inactive: -1.86
CGGGCAUUAAGGUAUGGAATT against Lrrc29 | inactive: 1.31
GGAUCUAGAGAUUGAAAAUTT against Uaca | inactive: 0.182
CCCACUACCGUCUUUCCUATT against Thoc6 | inactive: -1.73
GGAUGAUGUUCCCAUGCAATT against Cdca7l | inactive: -0.45
GGCAUGUCAGUGAAAUUUUTT against Vmn1r174 | inactive: -0.305
GGCAACUUGGAUGUUUUGATT against Pramel39 | inactive: 0.0425
GGUCCAGUCAGGAAACACATT against Flacc1 | inactive: -0.931
CCGAAGUUCACCCUAAAGGTT against Lmna | inactive: -0.485
GGUGUGUGAUAAAUCUUUUTT against Zfp53 | inactive: 1.52
GGCUGCCAAGAAAAUCUAUTT against Rab14 | inactive: 0.363
CCAUUCUACGAGAAUUGUATT against Dync1i2 | inactive: -0.326
GGGACUAAGAUGAAGCUGATT against Fam43a | active: -2.18
GGCUGCUUAGCUUUAAUGGTT against Ccdc177 | inactive: -0.674
GCUUUUUAGAAUCUCCGAATT against Sel1l | inactive: 0.584
GCCUUGUAGACCAGUUCUATT against 9530085L02Rik | active: 2.15
GUUUCAUGAGUGCCUCCAUTT against Olfr1446 | inactive: 1.51
GGAGGAAGAAACAAAAAAATT against Nolc1 | inactive: 0.583
GGACAGUAUAAAACUCCAATT against Atg3 | inactive: 0.104
CGACCUGCUCUCAUAGCUUTT against Sycn | inactive: -0.702
GCAAUGUGCACGAUGAUGATT against Pik3cg | inactive: -0.79
GCUUCCACAUAUUUUUUGCTT against Olfr1467 | inactive: -0.994

Sequence | z-score
CAAGAAAAUGCUCUCUGUUTT against Gm1553 | inactive: -1.51
GCACCUACGUUUGUUGGAUTT against Clasp2 | inactive: 1.4
GCUCCACAAGAUGUAAAGGTT against Il21 | inactive: 0.11
GCGCAGGUUGGAUGAAUGUTT against Psme3 | inactive: -0.433
GCAUUCAGUUGGGACAGUATT against Hsh2d | inactive: 0.443
GGGAUAUCCUACCAGGUCATT against Ppard | inactive: -1.24
GGAAAUGCCACCAUUGUUATT against Olfr514 | inactive: 0.33
CCCUAACAUUGAGAUGAUUTT against Peg10 | inactive: -0.369
GGCAAAACAAAAACUCUACTT against 1700028P14Rik | inactive: -0.834
GGCUUCAUGCCUUAUCCACTT against Fam166a | inactive: -0.314
GGCAACUGUUACUUUUAAUTT against Proser1 | inactive: -0.476
GGCAGCUAAACUGUGUUAUTT against Tex11 | inactive: -1.36
CCCUGGUAUCUUACAUCGATT against Zdhhc19 | inactive: -0.553
GGAGAGUGUAUCCUAUCUGTT against Snapc3 | inactive: -1.21
GGUGUACCAAGUGUUGAAGTT against Pold4 | inactive: 1.56
CCGUAGUCCUGAAGAUUCCTT against Olfr427 | inactive: -0.479
GGGCAUAUGGAGAACACAUTT against Dmrt1 | inactive: 0.565
GGAUGUACUUUGUUAAGGCTT against Tert | active: 2.78
GGGAAAGACUGGAAAUCUUTT against Tmod3 | inactive: 0.515
GCUGAAAUGGAGUAUUUGATT against Nf2 | inactive: 0.283
GGAGCUGCUCCAGUUGAUATT against Col11a1 | inactive: 0.443
GGAGAAGUUUGGGAAGAAATT against Gys2 | inactive: 0.0239

Sequence | z-score
CCUAGGGCUUUAGCUCUGATT against Msc | inactive: -0.75
GCAUAAUGCUGUCACCCUCTT against Aimp2 | inactive: 0.984
GGCUUUGUCGUUAAUUUUUTT against Auh | inactive: 0.322
GGAGUUUCGCAUGAGCCUGTT against Shroom1 | inactive: -0.0803
CCCUAAAACUUCUAUCGAGTT against Eif6 | inactive: -1.05
GGAGUCGUCACAGCAGAGATT against Stag2 | inactive: -1.1
GGCUUUGCUACUUGGGAUATT against Wdr86 | active: 3.16
GGAGGUGUUCAUUGAAGUCTT against Nudcd2 | inactive: -0.356
GGGCAAUGCUCAUGAGUUATT against Vegfd | inactive: 0.729
GCAGUCGAGCAUGAAACAATT against Atp5pb | inactive: -1.23
GGGACUUGCCAGAAGAUGCTT against Nkapl | inactive: -0.111
GGAGUUCCAGCUGUUGCUGTT against Erfe | inactive: 0.646
GGGAGGCUCUGGUGAACAATT against Cyp2b13 | inactive: 0.681
GGAUGGGAAGGUGAUUGUCTT against Gnb5 | inactive: 1
GCAUUUCCUAGUGUCUAUUTT against Tmem139 | inactive: 0.946
GGAAUGUUCACUGACAAAGTT against Gemin8 | inactive: 1.18
GGUCCGAAAGGCAGCUAUATT against Fcer1g | active: -2.17
CCGACUAAGAAUCAGAGAATT against Ccdc77 | inactive: 1.25
GGAUAAGAGAAAAACAGAATT against Ect2 | inactive: 0.141
